Test results as given in publication doi:10.1101/2025.10.27.684738.
No constants are given. Whether binding was seen depends on the method and setting.

Assays:
Experiment in all cases: SEC
[1] = target: ANXA11 N-terminal domain (Nt, residues 1-191) (human) (UniProt P50995)
[2] = target: ANXA11 N-terminal domain p.D40G mutant (Nt_(D40G), residues 1-191) (human) (UniProt P50995)
[3] = target: T1, ANXA11 C-terminal domain (Ct, residues 201-505) (human) (UniProt P50995)
T1 sequence (chain, RED-NHS 2nd Generation fluorescent dye in the MST (labelling degree ~0.6)): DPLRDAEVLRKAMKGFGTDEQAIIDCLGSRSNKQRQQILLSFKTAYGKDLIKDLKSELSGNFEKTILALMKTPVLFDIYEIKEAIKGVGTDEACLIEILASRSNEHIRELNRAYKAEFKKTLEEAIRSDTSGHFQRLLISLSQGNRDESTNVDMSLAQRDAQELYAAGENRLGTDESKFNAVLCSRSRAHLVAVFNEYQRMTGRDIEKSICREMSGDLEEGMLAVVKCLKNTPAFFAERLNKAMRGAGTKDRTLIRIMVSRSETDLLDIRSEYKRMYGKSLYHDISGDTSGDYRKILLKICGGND

ANXA11 N-terminal domain (Nt, residues 1-191) (from UniProt P50995 1-191) (domain or fragment)
binding [1]: no binding

ANXA11 N-terminal domain p.D40G mutant (Nt_(D40G), residues 1-191) (from UniProt P50995 1-191) (domain or fragment)
binding [2]: no binding

B1: ANXA11 C-terminal domain (Ct, residues 201-505) (domain or fragment, UniProt P50995 201-505)
chain: T1 sequence (chain, RED-NHS 2nd Generation fluorescent dye in the MST (labelling degree ~0.6))
modifications: RED-NHS 2nd Generation fluorescent dye in the MST (labelling degree ~0.6)
binding [3]: no binding
